The list does not hold the whole screen: it gathers tests that were run many times, whatever their T/C, doses with no T/C, and many T/C values between a quarter and a half above the control. Further doses and runs are listed elsewhere. T/C: endpoint of the treated group in % of that of the vehicle group. Some doses have a count of surviving animals in place of a T/C: the source files T/C as zero there, which appears to mark a toxic dose or a test without result, not a measured value. Some doses without a T/C left all or most animals alive at the check, yet need not have been tolerated: survival well below the control is almost never listed, so the zero probably covers shortened survival too. Counts of survivors are from the toxicity check (mostly the fifth day) where no day follows; animals may have died later. Schedules are NCI's codes, taken here to give the interval after Q, in days (D) or hours (H), and the number of doses after X. Some doses were run more than once; the results are listed from low to high. For survival time, this PubChem deposit counts one and a half times the control or more as active, and values a quarter to a half above the control carry no call in these data; other NCI protocols may use other cut-offs.
Test system: CD2F1 mice, L1210 leukemia ip, survival T/C
Assay: NCI In Vivo Anticancer Drug Screen. Data for tumor model L1210 Leukemia (intraperitoneal) in CD2F1 (CDF1) mice
Conditions: higher T/C = longer survival
Procedure, shortened: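 Ratio T/C, where T is the treated-group value and C the vehicle-dosed control value, from mice implanted with a transplantable tumor.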

CCOC(=O)c1c(C)[nH]c(C)cc1=O
survivor count (T/C endpoint: mean survival time, dose: 400.0 mg/kg/injection, schedule: Q04DX002 (ip), vehicle: saline): 0 of 3

C1=C(c2ccccc2)NN=C(c2ccccc2)C1c1ccccc1 (stereo not given)
survivor count (T/C endpoint: mean survival time, dose: 12.5 mg/kg/injection, schedule: Q01DX001 (ip), vehicle: saline with Tween-80): 6 of 6
survivor count (T/C endpoint: mean survival time, dose: 25.0 mg/kg/injection, schedule: Q01DX001 (ip), vehicle: saline with Tween-80): 6 of 6

CN=C(N)N/N=C(\C)c1ccc2c(c1)Cc1cc(/C(C)=N/NC(N)=NC)ccc1-2
T/C (T/C endpoint: median survival time, dose: 0.75 mg/kg/injection, schedule: Q01DX009 (ip), vehicle: saline with Tween-80): 125 and 132 % of control
T/C (T/C endpoint: median survival time, dose: 1.5 mg/kg/injection, schedule: Q01DX009 (ip), vehicle: saline with Tween-80): 130 and 144 % of control
T/C (T/C endpoint: median survival time, dose: 3.0 mg/kg/injection, schedule: Q01DX009 (ip), vehicle: saline with Tween-80): 132 % of control
survivor count (T/C endpoint: median survival time, dose: 12.0 mg/kg/injection, schedule: Q01DX009 (ip), vehicle: saline with Tween-80): 1 of 6 and 3 of 6

COC1=CC(=O)C=C(OC)C1=O
survivor count (T/C endpoint: mean survival time, dose: 32.0 mg/kg/injection, schedule: Q01DX009 (ip), vehicle: saline): 2 of 6

CC(NC(=O)CCl)C(=O)O (stereo not given)
survivor count (T/C endpoint: mean survival time, dose: 400.0 mg/kg/injection, schedule: Q04DX003 (ip), vehicle: saline): 5 of 6

COc1ccc(SC2=CC(=O)c3ccccc3C2=O)cc1
survivor count (T/C endpoint: mean survival time, dose: 300.0 mg/kg/injection, schedule: Q01DX001 (ip), vehicle: other): 1 of 6

CNC(=O)NCc1ccc(C(=O)NC(C)C)cc1
survivor count (T/C endpoint: mean survival time, dose: 800.0 mg/kg/injection, schedule: Q01DX009 (ip), vehicle: other): 0 of 6

O=C1C2C3CC4C2C(Br)C2C1C3C42 (stereo not given)
survivor count (T/C endpoint: mean survival time, dose: 100.0 mg/kg/injection, schedule: Q04DX002 (ip), vehicle: saline with Tween-80): 2 of 3
survivor count (T/C endpoint: mean survival time, dose: 200.0 mg/kg/injection, schedule: Q04DX002 (ip), vehicle: saline with Tween-80): 0 of 3

CCSCCNC1=C(C)C(=O)C2=C(C1=O)[C@H](COC(N)=O)[C@]1(OC)[C@@H]3N[C@@H]3CN21
T/C (T/C endpoint: mean survival time, dose: 12.0 mg/kg/injection, schedule: Q01DX001 (ip), vehicle: distilled water + Tween-80): 137 % of control
survivor count (T/C endpoint: mean survival time, dose: 48.0 mg/kg/injection, schedule: Q01DX001 (ip), vehicle: distilled water + Tween-80): 1 of 6

C[C@@H]1C[C@H]2[C@@H]3CCC4=CC(=O)C=C[C@]4(C)[C@@]3(F)[C@@H](O)C[C@]2(C)[C@@]1(O)C(=O)CO
T/C (T/C endpoint: mean survival time, dose: 100.0 mg/kg/injection, schedule: Q01DX009 (ip), vehicle: suspension in saline): 132 % of control

CCOC(=O)N(C)N=NC
T/C (T/C endpoint: median survival time, dose: 15.0 mg/kg/injection, schedule: Q01DX005 (ip), vehicle: saline): 133 % of control
T/C (T/C endpoint: median survival time, dose: 18.0 mg/kg/injection, schedule: Q01DX005 (ip), vehicle: saline): 134 % of control
T/C (T/C endpoint: median survival time, dose: 30.0 mg/kg/injection, schedule: Q01DX005 (ip), vehicle: saline): 142 and 144 % of control
survivor count (T/C endpoint: median survival time, dose: 83.33 mg/kg/injection, schedule: Q01DX005 (ip), vehicle: saline): 0 of 6

N#C/C(C(=S)S)=C(/O)c1ccccc1
survivor count (T/C endpoint: mean survival time, dose: 200.0 mg/kg/injection, schedule: Q04DX003 (ip), vehicle: saline with Tween-80): 1 of 6
survivor count (T/C endpoint: mean survival time, dose: 400.0 mg/kg/injection, schedule: Q04DX003 (ip), vehicle: saline with Tween-80): 0 of 6

CC/C(=C(\c1ccccc1)c1ccc(OCCN(C)C)cc1)c1ccccc1
survivor count (T/C endpoint: median survival time, dose: 100.0 mg/kg/injection, schedule: Q01DX009 (ip), vehicle: saline with Tween-80): 4 of 6
survivor count (T/C endpoint: median survival time, dose: 200.0 mg/kg/injection, schedule: Q01DX009 (ip), vehicle: saline with Tween-80): 0 of 6
survivor count (T/C endpoint: median survival time, dose: 400.0 mg/kg/injection, schedule: Q01DX009 (ip), vehicle: saline with Tween-80): 0 of 6
